{
  "source": "paper PMC13039524",
  "binders": {"B1": {"name": "Acyl-CoA dehydrogenase-9 (ACAD9) (protein, UniProt Q8JZN5 42-625)", "chain": "SFAKELFLGNIEQKGVFPFPEVSQHELSEINQFVGPLEKFFTEEVDSRKIDQEGKIPVDTLEKLKSLGLFGIQVPEEYGGLGLSNTMYARLGEIISLDASITVTLAAHQAIGLKGIILVGNEEQKAKYLPKLSSGEHIAAFCLTEPASGSDAASIQTRATLSEDKKYFILNGSKVWITNGGLANIFTVFAKTEVVDSDGSKTDKMTAFIVERDFGGITNGKPEDKLGIRGSNTCEVHFENTRVPVENVLGEVGGGFKVAMNILNSGRFSMGSAVAGMLKKLIELTAEYACTRKQFNRNLSEFGLIQEKFALMAQKAYVMESMAYLTSGMLDQPGFPDCSIEAAMVKVFSSEAAWQCVSEALQILGGSGYMKDYPYERMLRDARILLIFEGTNEILRLFIALTGLQHAGRILTSRIKELKSGNVTTVMETIGRKLRDSLGRTVDLGLTGDLGVVHPSLGDSANKLEENVHYFGRTVETLLLRFGKNIVEEQLVLKRVANILINLYGMTAVLSRASRSIRIGLRNHDHEVLLANMFCVEAYFQNLFSLSQLDKNAPENLDEQIKKVSRQILEKRAYICAHPLDRAS"}},
  "target": "T1, TRAF6 (UniProt P70196)",
  "T1 sequence": "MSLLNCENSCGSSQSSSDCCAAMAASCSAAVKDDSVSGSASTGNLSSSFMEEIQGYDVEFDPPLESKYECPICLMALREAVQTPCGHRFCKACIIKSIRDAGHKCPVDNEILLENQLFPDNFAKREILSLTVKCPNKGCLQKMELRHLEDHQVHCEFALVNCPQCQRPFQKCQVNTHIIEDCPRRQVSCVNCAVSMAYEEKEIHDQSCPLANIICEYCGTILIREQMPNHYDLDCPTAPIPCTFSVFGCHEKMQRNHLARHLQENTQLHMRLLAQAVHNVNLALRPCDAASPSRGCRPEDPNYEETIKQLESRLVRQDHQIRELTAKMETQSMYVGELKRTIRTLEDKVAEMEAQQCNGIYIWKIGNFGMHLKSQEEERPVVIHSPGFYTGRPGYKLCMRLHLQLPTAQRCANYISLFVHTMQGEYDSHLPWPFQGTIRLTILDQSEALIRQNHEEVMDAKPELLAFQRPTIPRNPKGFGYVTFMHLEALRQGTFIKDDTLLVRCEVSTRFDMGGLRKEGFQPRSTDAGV",
  "assay": "co-IP; cells lysed in IP lysis buffer 48 h after transfection; lysate incubated with anti-Flag M2 beads or His-tag purification resin at 4 °C for 4 h; washed four to five times with NETN buffer; Western blotting; bait not stated",
  "note": "These are yes or no findings as the source states them, for the method shown. Binding seen in cells or lysates may run through a third protein. Some results given as binding are weak or reduced against the parent protein; the word gives no strength.",
  "data": [
    {"binder": "B1", "values": [
      {"measurement": "binding", "result": "binds"}
    ]}
  ]
}
